We go through three molecules from paper doi:10.1101/2023.08.07.552250.

By UniProt entry, the sequences of proteins in these tests, tags left out. Where a name states a change or a piece, a line headed by the entry shows the natural chain unless it says otherwise.
UniProt Q9LY75, whole entry: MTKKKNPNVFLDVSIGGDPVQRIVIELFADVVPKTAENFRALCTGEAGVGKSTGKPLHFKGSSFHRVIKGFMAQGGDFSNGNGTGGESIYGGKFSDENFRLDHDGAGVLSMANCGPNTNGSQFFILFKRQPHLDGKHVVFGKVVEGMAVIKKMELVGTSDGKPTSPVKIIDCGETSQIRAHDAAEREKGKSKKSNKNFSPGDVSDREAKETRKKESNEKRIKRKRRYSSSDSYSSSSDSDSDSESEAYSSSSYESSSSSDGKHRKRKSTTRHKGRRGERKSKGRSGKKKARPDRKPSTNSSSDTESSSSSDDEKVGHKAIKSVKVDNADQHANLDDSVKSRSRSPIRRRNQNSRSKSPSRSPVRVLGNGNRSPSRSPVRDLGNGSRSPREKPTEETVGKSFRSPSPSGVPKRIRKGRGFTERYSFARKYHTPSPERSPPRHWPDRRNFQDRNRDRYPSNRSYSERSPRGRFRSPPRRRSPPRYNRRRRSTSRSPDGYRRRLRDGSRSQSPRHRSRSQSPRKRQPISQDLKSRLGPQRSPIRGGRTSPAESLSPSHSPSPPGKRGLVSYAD

Numbering of substitutions follows the chain as printed. Read-outs that look alike come from different tables or passages of the source. Results are given in words; binding and its absence hold for the method and conditions named. For some of these results: In cells and extracts the contact can be indirect. Some results given as binding are weak or reduced against the parent protein; the word gives no strength. For some of these results: Where a sequence is shown, tags or fusion partners need not be part of it.

Experiment [1] addresses T1, serine/arginine-rich 45 (SR45), SR45.1 isoform (Arabidopsis thaliana) (UniProt Q9SEE9).
T1 sequence: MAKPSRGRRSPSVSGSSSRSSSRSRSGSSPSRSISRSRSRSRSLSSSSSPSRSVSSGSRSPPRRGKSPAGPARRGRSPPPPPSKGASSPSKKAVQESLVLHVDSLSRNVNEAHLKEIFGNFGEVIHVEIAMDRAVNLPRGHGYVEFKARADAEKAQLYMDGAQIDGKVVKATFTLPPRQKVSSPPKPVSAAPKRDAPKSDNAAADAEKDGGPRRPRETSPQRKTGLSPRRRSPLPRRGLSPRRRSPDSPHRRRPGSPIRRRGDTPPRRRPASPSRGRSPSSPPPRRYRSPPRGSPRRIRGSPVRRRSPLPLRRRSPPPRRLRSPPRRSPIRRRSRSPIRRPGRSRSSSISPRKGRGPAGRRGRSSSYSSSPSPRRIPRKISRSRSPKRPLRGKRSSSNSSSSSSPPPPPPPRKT
Description: two-hybrid.

Experiment [2] addresses T1, serine/arginine-rich 45 (SR45), SR45.1 isoform (Arabidopsis thaliana). Description: two-hybrid. The source holds these as a separate data set.
The target of experiment [3] is T2, SR45mutRRM (Arabidopsis thaliana) (UniProt Q9SEE9).
T2 sequence: T1 sequence with H101A, H141A, Y143A
Briefly: two-hybrid.

For experiment [4], the target named is T3, SR45:CYFP (Arabidopsis thaliana) (UniProt Q9SEE9).
T3 sequence: T1 sequence
Description: split reporter.

The target of experiment [5] is T4, SR45mutRRM fused to CYFP (Arabidopsis thaliana) (UniProt Q9SEE9).
T4 sequence: T1 sequence with H101A, H141A, Y143A
Description: split reporter.

Regarding “CypRS64 (Cyclophilin-containing RS domain of 64 kDa) (from UniProt Q9LY75 1-570)”, the binding entry in experiment [1] is “binds”; in experiment [2] it was “binds”; in experiment [3], “no binding”.

B1: SR34:NYFP (protein, UniProt O22315 1-303)
chain: MSSRSSRTVYVGNLPGDIREREVEDLFSKYGPVVQIDLKVPPRPPGYAFVEFDDARDAEDAIHGRDGYDFDGHRLRVELAHGGRRSSDDTRGSFNGGGRGGGRGRGDGGSRGPSRRSEFRVLVTGLPSSASWQDLKDHMRKGGDVCFSQVYRDARGTTGVVDYTCYEDMKYALKKLDDTEFRNAFSNGYVRVREYDSRKDSRSPSRGRSYSKSRSRSRGRSVSRSRSRSRSRSRSPKAKSSRRSPAKSTSRSPGPRSKSRSPSPRRSRSRSRSPLPSVQKEGSKSPSKPSPAKSPIHTRSPSR
B1: the binding entry in experiment [4] and in experiment [5] was “binds” in each case.

B2: PRP38:NYFP (protein, UniProt Q8LB54 1-355)
chain: MANRTDPLAKNIRGTNPQNLVEKIVRTKIYQHTFWKEQCFGLTAETLVDKAMELDHLGGTFGGSRKPTPFLCLILKMLQIQPEKEIVVEFIKNDDYKYVRILGAFYLRLTGTDVDVYRYLEPLYNDYRKVRQKLSDGKFSLTHVDEVIEELLTKDYSCDIAMPRLKKRWTLEQNGLLEPRKSVLEDDFEEEEEKEENEGIADGSEDEMDQRRKSPERERERDRDRRRDSHRHRDRDYDRDYDMDRDHDRDYERERGHGRDRDRERDRDHYRERDRDRERGRDRERDRRDRARRRSRSRSRDRKRHETDDVRDREEPKKKKEKKEKMKEDGTDHPNPEIAEMNRLRASLGMKPLRD
In the case of B2, the binding entry in experiment [4] and in experiment [5] was “binds” each time.
